Percent effect of library compounds

Data taken from ChEMBL document CHEMBL3988442, “University of Dundee, Small-Polar-MMV Screening Library” (2021).

Each number is a percent effect as filed. How 0% and 100% were set is not recorded. Most values in the screen are low, and negative values occur. The compounds are a random part of those screened.

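Assay of Toxoplasma gondii numbers, read through their beta-galactosidase reporter with a colour substrate. Tested at 10 µM. Higher reads as fewer parasites (inferred from which compounds were picked for retests). About 67,000 compounds were tested under these conditions; 0.38% (about 260) showed 50% or more at least once.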

Compound	percent effect
Cn1ccc(C(=O)NCC2(O)CCN(c3cnccn3)C2)n1 (configuration not stated)	-10.99
[H][C@@]12COC[C@]1(COCC1CC1)CN(C(=O)c1ccnnc1)C2	-7.471
Cc1cc(C)n(CCCNC(=O)C2CCCO2)n1 (configuration not stated)	1.723
Cc1nc(NC(=O)COCC2CC2)ccc1Br	-2.195
Fc1ccc(CN2CCCC(Cn3cncn3)C2)c2ncccc12 (configuration not stated)	-4.636
Cc1nc2ccccc2n1Cc1cc(C(=O)N(C)C2CCOC2)n[nH]1 (configuration not stated)	-4.405
[H][C@@]12CN(C(=O)c3ccc(C)cc3)C[C@]1([H])CN(c1ncccn1)C2	6.934
O=C(O)C(F)(F)F.O=S(=O)(c1cccs1)N1CCCn2cnc(CO)c2C1	3.099
O=C(O)C(F)(F)F.[H][C@]12CC[C@@]3(N=C(C)N(CC4CC4)C3=O)[C@@]1([H])CN(CC1CC1)C2	-15.73
COc1nsc2nc(C3CCCN3c3ncccn3)ccc12 (configuration not stated)	2.898
CC(C(=O)N1CCN(Cc2ccc(C#N)cc2)CC1)n1ccnc1 (configuration not stated)	23.85
CCN1CCOC(CNc2nccc(C(F)(F)F)n2)C1 (configuration not stated)	-22.63
Cn1cnnc1Sc1ccc(NC(=O)C2CC2)cc1Cl	1.241
CC1(C)CN(S(=O)(=O)N2CCCC2)CC1c1ccccc1 (configuration not stated)	-49.71
CSc1nnc(CNC(=O)Nc2ccccc2F)n1C	-1.679
CN(CC(N)=O)CC1(c2ccc(Br)cc2)CC1	-0.8526
CC(C)N1C[C@@H](CO)[C@H](c2ccccc2)S1(=O)=O	-30.65
COC(=O)CCCN(C)C(c1cccnc1)c1ccc(F)cc1F (configuration not stated)	16.22
COCCn1ccnc1-c1[nH]cnc1C	-3.96
CC(C)c1noc(CCNC(=O)N2CCC(O)(C(F)(F)F)C2)n1 (configuration not stated)	25.71
Cc1nnc(SCCC(=O)N(C)Cc2c(F)cccc2Cl)[nH]1	1.762
CC(C)Nc1ncnc2c1CCN(Cc1ccoc1)CC2	-17.1
Cn1c(C2CC2)nc2cc(NC(=O)C3(O)CCCC3)ccc21	0.6699
CCc1nc(C)c(C(=O)N[C@@H]2c3ccccc3C[C@@H]2O)o1	11.24
Cc1cc(N)cc(C2CN(Cc3cc[nH]n3)CCO2)n1 (configuration not stated)	-6.179
NS(=O)(=O)c1cnn(-c2ccc(NC(=O)C3CCCCC3)cn2)c1	18.54
Cn1cc(CN2CCC[C@]3(C[C@@H](Oc4ccccn4)CO3)C2)cn1.O=C(O)C(F)(F)F.O=C(O)C(F)(F)F	2.892
O=C(Nc1nccs1)NC1CCN(Cc2ccccn2)CC1	-28.87
CN(Cc1noc2c1CCCC2)C(=O)C1CCOc2ccccc2C1 (configuration not stated)	-3.742
O=C1CCC2(CCOC2)CN1Cc1ccc2nsnc2c1 (configuration not stated)	5.03
COc1cccc(COCC(=O)NC(C(N)=O)c2ccccc2F)c1 (configuration not stated)	10.44
Cc1cccc(Nc2nccnc2C2CCCN(CC(=O)N(C)C)C2)n1 (configuration not stated)	-9.567
O=C(O)C(F)(F)F.O=C(c1ccc[nH]1)N1CCc2c(COCC3CC3)cncc2C1	-3.066
CC(C)NC(=O)N1CCCC2(CCCCN2)C1 (configuration not stated)	-3.549
CN1CCc2nc(C3CCCN(C(=O)CC(C)(C)C)C3)ncc2C1 (configuration not stated)	0.6033
Cc1cnn(CC2CCCN2C(=O)Cc2cn3ccsc3n2)c1 (configuration not stated)	-1.567
Cc1ccc(C(CCNCCN(C)C)C2CCOC(C)(C)C2)cc1.O=C(O)C(=O)O (configuration not stated)	5.223
CCOCCc1nc(CCc2ccccc2)n[nH]1	-15.96
COc1ccccc1OCC(=O)Nc1ncccc1OC(F)F	-4.362
CCC[C@@H]1CN(Cc2cc(OC)c3c(c2)OCO3)C[C@H]1C(=O)O	12.01
CCC1c2ccsc2CCN1C(=O)NCc1cc[nH]n1 (configuration not stated)	-6.241
O=C(NCCn1ccnc1)c1csc(Br)c1	-5.368
Cc1ccnc(C2CN(Cc3cnn(-c4ccccc4C(=O)O)c3)C2)n1	-3.206
Cc1ccc(-c2nc(C(=O)N3CCOCC3)cs2)c(C)c1	9.65
O=C(O)C(F)(F)F.[H][C@]12CCCC(OCc3cccnc3)[C@@]1([H])CN(C(=O)c1cscn1)C2 (some centres not stated)	0.641
Cc1oc(NC(=O)C(C)N2CCN(C(=O)C3CC3)CC2)c(C#N)c1C (configuration not stated)	1.69
COc1cccc(N2CCN(CCC(=O)NC3CCCC3)CC2)c1	2.061
Cc1cc(C2CCCN2C(=O)c2ccc(OCC(N)=O)cc2)no1 (configuration not stated)	4.99
CC(C)c1noc(CCC(=O)N2CCCC(n3ccnc3)C2)n1 (configuration not stated)	0.6747
COCCN1CCC12CCN(C(=O)c1ccsc1)CC2.O=C(O)C(F)(F)F	0.1596
O=C1NC2(CCCCC2)c2nnnn2-c2ccc(Br)cc21	2.083
C/C(Cl)=C/CNC(=O)[C@H]1CC[C@]2(CC1)CN(C)C(=O)c1ccccc1O2	15.23
c1nc(NCc2cc3n(n2)CCN(C2CCCCC2)C3)c2nc[nH]c2n1	14.28
CC(C)(N)c1cn(C2CCN(C(=O)CCC3CCCCC3)CC2)nn1	-33.76
CN(C)CCN1CCC2(CCCN(Cc3cccn3C)C2)C1=O.O=C(O)C(F)(F)F.O=C(O)C(F)(F)F (configuration not stated)	1.417
Cc1cccc2c(=O)n(C(C)Cc3cccnc3)cnc12 (configuration not stated)	11.08
CCc1nc(C2CCCN2C(=O)CCNS(C)(=O)=O)no1 (configuration not stated)	1.4
COc1ccc(CC(=O)NCCn2nc3ccccn3c2=O)cc1	-2.426
Nc1nc(CCC(=O)N2C[C@H](c3ccccc3)[C@@H](N)C2)cs1	6.095
Cc1c(C)n(CC(O)CN2CCCCCC2)c2c(Cl)cccc12 (configuration not stated)	-3.586
CNC(=O)c1cc2c(nc1N(C)C)CCN(c1ncc(F)cn1)CC2.O=C(O)C(F)(F)F	-1.493
CO[C@H]1CN(Cc2nc3ccccc3n2C)CC[C@@]12CCCO2	-15.34
CC(=O)N1CCC(C)(c2cc(C(=O)NCC3CC3)nc(C)n2)CC1	10.99
OCCOc1cc(F)ccc1NCc1nc(-c2cccs2)no1	-11.62
O=C1c2c(O)cc(O)cc2O[C@@H](c2ccc(O)cc2)[C@@H]1O	10.94
CNc1ncc2c(n1)CN(C1CCCC1)C2=O	52.32
CC(C)CN1CCn2c(COCc3cccnc3)nnc2C1.O=C(O)C(F)(F)F.O=C(O)C(F)(F)F	5.296
CCNC(=O)CN(CC)S(=O)(=O)c1c(Br)cc2[nH]c(=O)oc2c1Cl	25.41
CN(C)C(=O)c1nnc2ccc(N3CCOCC3)cc2n1	-0.06734
CC(C)c1nc(C(=O)N2CCOCC2CC(=O)c2ccco2)c[nH]1 (configuration not stated)	-0.2514
CC(=O)N1CCN(CC(=O)N2CCN(c3cccc(C)c3)CC2)CC1	9.532
O=C(c1ccccn1)N1CCc2nc(-c3cnccn3)nc(O)c2C1	0.4484
CCc1cc(N(C)CCc2noc(C)n2)nc(N2CCOCC2)n1	11.68
CCc1ccccc1-n1nnc(C(=O)O)c1-c1ccccn1	3.167
COC1CCN(c2ccc(NC(=O)Cn3cccc3)cc2)CC1	5.233
CC(C)[C@H](NS(C)(=O)=O)C(=O)NCc1cc(-c2ccco2)n[nH]1	-6.471
[H][C@]12CCCCN1CCC[C@H]2CN(C)Cc1ccccc1-n1cccn1	-2.697
c1cnnc(N2CCCC(NCc3nnc(-c4ccco4)o3)C2)c1 (configuration not stated)	7.744
CC(C)c1noc(CN2CCC(C3CCCCCN3S(C)(=O)=O)CC2)n1.Cl (configuration not stated)	-0.5325
O=C(O)C(F)(F)F.[H][C@@]12CCN(C(=O)c3ccccn3)[C@]1([H])CCC(=O)N2Cc1csc(C)n1	11.92
O=C(NC1COC2(CCN(Cc3ccccn3)CC2)C1)c1ccccn1.O=C(O)C(F)(F)F (configuration not stated)	-1.552

The first 8 entries again:

Cn1ccc(C(=O)NCC2(O)CCN(c3cnccn3)C2)n1 (configuration not stated) gave -10.99%.
[H][C@@]12COC[C@]1(COCC1CC1)CN(C(=O)c1ccnnc1)C2 gave -7.471%.
Cc1cc(C)n(CCCNC(=O)C2CCCO2)n1 (configuration not stated) gave 1.723%.
Cc1nc(NC(=O)COCC2CC2)ccc1Br gave -2.195%.
Fc1ccc(CN2CCCC(Cn3cncn3)C2)c2ncccc12 (configuration not stated) gave -4.636%.
Cc1nc2ccccc2n1Cc1cc(C(=O)N(C)C2CCOC2)n[nH]1 (configuration not stated) gave -4.405%.
[H][C@@]12CN(C(=O)c3ccc(C)cc3)C[C@]1([H])CN(c1ncccn1)C2 gave 6.934%.
O=C(O)C(F)(F)F.O=S(=O)(c1cccs1)N1CCCn2cnc(CO)c2C1 gave 3.099%.